The list shows only some results of the screen, not a fair sample: it gathers tests that were run many times, whatever their T/C, doses with no T/C, and many T/C values between a quarter and a half above the control. Other doses and runs of a compound stand elsewhere. T/C is the treated group as % of the vehicle group. Some entries give survivors of the animals treated and no T/C: the source holds a T/C of zero for them, seemingly a mark for toxic or unscored doses. Some survivor counts are full or nearly so, which does not show that the dose was tolerated: the source hardly ever lists a survival T/C far under the control, and the zero likely stands for such cases as well. Survivors were counted at the toxicity check, usually on the fifth day, unless a day is given; later deaths do not show. Schedules are NCI's codes, taken here to give the interval after Q, in days (D) or hours (H), and the number of doses after X. Some entries were tested several times; their values stand side by side, smallest first. Some schedule codes hold Z or #, which are not explained here. Where survival is the endpoint, this PubChem deposit counts one and a half times the control or more as active, and values a quarter to a half above the control carry no call in these data; other NCI protocols may use other cut-offs. Some T/C values are followed by the survivors on the day toxicity was checked, most often the fifth; where none is given, no animal had died by that day.
Test system: L1210 leukemia ip in BDF1 mice, survival T/C
Test: NCI In Vivo Anticancer Drug Screen. Data for tumor model L1210 Leukemia (intraperitoneal) in B6D2F1 (BDF1) mice
Conditions: T/C endpoint: mean survival time, higher T/C = longer survival
[1] = dose: 100.0 mg/kg/injection, schedule: Q01DX009 (ip), vehicle: saline with Tween-80
[2] = dose: 100.0 mg/kg/injection, schedule: Q04DX002 (ip), vehicle: Klucel (hydroxypropylcellulose) (HPC)
[3] = dose: 400.0 mg/kg/injection, schedule: Q01DX001 (ip), vehicle: saline
[4] = dose: 400.0 mg/kg/injection, schedule: Q04DX003 (ip), vehicle: saline
[5] = dose: 200.0 mg/kg/injection, schedule: Q04DX003 (ip), vehicle: saline with Tween-80
[6] = dose: 400.0 mg/kg/injection, schedule: Q04DX003 (ip), vehicle: saline with Tween-80
[7] = dose: 200.0 mg/kg/injection, schedule: Q04DX003 (ip), vehicle: saline
[8] = dose: 400.0 mg/kg/injection, schedule: Q01DX009 (ip), vehicle: saline
[9] = dose: 400.0 mg/kg/injection, schedule: Q04DX003 (ip), vehicle: Klucel (hydroxypropylcellulose) (HPC)
[10] = dose: 400.0 mg/kg/injection, schedule: Q04DX002 (ip), vehicle: Klucel (hydroxypropylcellulose) (HPC)
[11] = dose: 150.0 mg/kg/injection, schedule: Q01DX001 (ip), vehicle: other
[12] = dose: 300.0 mg/kg/injection, schedule: Q01DX001 (ip), vehicle: other
[13] = dose: 200.0 mg/kg/injection, schedule: Q01DX001 (ip), vehicle: saline
[14] = dose: 100.0 mg/kg/injection, schedule: Q04DX003 (ip), vehicle: saline

ClC1=C(Cl)C(Cl)=C(Cl)C1=Cc1ccccc1
survivor count (dose: 12.5 mg/kg/injection, schedule: Q01DX009 (ip), vehicle: saline with Tween-80): 6 of 6 | survivor count (dose: 25.0 mg/kg/injection, schedule: Q01DX009 (ip), vehicle: saline with Tween-80): 1 of 6 | survivor count (dose: 50.0 mg/kg/injection, schedule: Q01DX009 (ip), vehicle: saline with Tween-80): 0 of 6 | survivor count [1]: 0 of 6 | survivor count [2]: 3 of 3

C=C(C)C1CCC2=CCCC(C)C2(C)C1 (stereo not given)
survivor count (dose: 400.0 mg/kg/injection, schedule: Q04DX003 (ip), vehicle: acetone): 5 of 6

C/C=C1\CN(C)[C@H]2Cc3c([nH]c4ccccc34)[C@@H](c3cc4[nH]c5c(c4cc3OC)CCN3C[C@H]4C[C@H](CC)[C@H]3[C@@]5(C(=O)OC)C4)C[C@H]1C2C(=O)OC (stereo not given in full)
survivor count (dose: 90.0 mg/kg/injection, schedule: Q01DX Z (ip), vehicle: other): 0 of 6 | survivor count (dose: 105.0 mg/kg/injection, schedule: Q01DX Z (ip), vehicle: other): 0 of 6 | survivor count (dose: 120.0 mg/kg/injection, schedule: Q01DX Z (ip), vehicle: other): 0 of 6 | survivor count (dose: 135.0 mg/kg/injection, schedule: Q01DX Z (ip), vehicle: other): 0 of 6

C=CCNCC=C
survivor count [3]: 0 of 4

O=C(CCl)OC(=O)C(Cl)(Cl)Cl
survivor count [4]: 0 of 6

COc1ccc(CC(C)N)cc1OC (stereo not given)
survivor count (dose: 400.0 mg/kg/injection, schedule: Q04DX002 (ip), vehicle: saline): 0 of 3

Cc1nc(-c2ccccc2)nc2c1CCO2
survivor count (dose: 400.0 mg/kg/injection, schedule: Q01DX009 (ip), vehicle: saline with Tween-80): 3 of 6

O=C(C[n+]1ccc2ccccc2c1)c1ccc2ccccc2c1
survivor count (dose: 100.0 mg/kg/injection, schedule: Q04DX003 (ip), vehicle: saline with Tween-80): 6 of 6 | survivor count [5]: 4 of 6 | survivor count [6]: 4 of 6

Cc1cnc(C(=O)O)c(N)n1
survivor count (dose: 300.0 mg/kg/injection, schedule: Q01DX001 (ip), vehicle: saline): 3 of 6

CC(CCc1ccccc1)NC(C)C(O)c1ccc(O)cc1 (stereo not given)
survivor count (dose: 200.0 mg/kg/injection, schedule: Q01DX009 (ip), vehicle: saline): 2 of 6 | survivor count [7]: 4 of 4 | survivor count [8]: 1 of 6

O=C(O)CCSSCCC(=O)O
survivor count (dose: 50.0 mg/kg/injection, schedule: Q01DX009 (ip), vehicle: Klucel (hydroxypropylcellulose) (HPC)): 5 of 6 | survivor count [9]: 6 of 6

CNC(=O)ON=C1CCC(CC2CCCCC2)CC1 (stereo not given)
survivor count [9]: 2 of 6

COc1ccc(N)cc1
survivor count (dose: 400.0 mg/kg/injection, schedule: Q01DX009 (ip), vehicle: alcohol): 5 of 6

O=S(=O)(c1ccccc1)C(I)I
survivor count [2]: 1 of 3 | survivor count (dose: 200.0 mg/kg/injection, schedule: Q04DX002 (ip), vehicle: Klucel (hydroxypropylcellulose) (HPC)): 0 of 3 | survivor count [10]: 0 of 3

CN(C)/C=N\c1c(C#N)c(CC#N)nn1-c1ccccc1
survivor count [5]: 3 of 6 | survivor count [6]: 0 of 6

Oc1ccc(Cl)cc1C=Nc1cnc2ccccc2c1
survivor count (dose: 200.0 mg/kg/injection, schedule: Q01DX001 (ip), vehicle: carboxymethylcellulose (CMC)): 4 of 4

CC1(C)CSC(=S)N1CCC#N
survivor count [11]: 0 of 6 | survivor count [12]: 0 of 6

NNC(=O)CNc1ccc(F)cc1Cl
survivor count [10]: 1 of 3

C[N+]1(C)C2CC(OC(=O)C(CO)c3ccccc3)CC1C1OC12 (stereo not given)
survivor count [11]: 3 of 6 | survivor count [12]: 0 of 6

C=CCN1C(=O)C(c2ccccc2)C2(CCN(C)CC2)C1=O (stereo not given)
survivor count (dose: 200.0 mg/kg/injection, schedule: Q01DX001 (ip), vehicle: Klucel (hydroxypropylcellulose) (HPC)): 1 of 6 | survivor count (dose: 400.0 mg/kg/injection, schedule: Q01DX001 (ip), vehicle: Klucel (hydroxypropylcellulose) (HPC)): 0 of 6

CC/C(=C/c1ccccc1)C(N)=O
survivor count (dose: 400.0 mg/kg/injection, schedule: Q01DX001 (ip), vehicle: steroid suspending solution): 0 of 6

CCOC(=O)CCCN(c1sc(C)c(-c2ccccc2)c1C(=O)OCC)S(=O)(=O)c1ccc(C)cc1
survivor count [1]: 6 of 6

C=C1C(=O)OC2CC(C)C(C(O)CC(C)O)=CCC12 (stereo not given)
survivor count (dose: 200.0 mg/kg/injection, schedule: Q01DX001 (ip), vehicle: water): 1 of 6

CCCCCCCC(=O)Nc1cc2c3c(c1)CCCN3CCC2
survivor count [6]: 4 of 6

CC12OC1C(=O)c1ccccc1C2=O (stereo not given)
survivor count (dose: 20.0 mg/kg/injection, schedule: Q04DX003 (ip), vehicle: Klucel (hydroxypropylcellulose) (HPC)): 4 of 6

CCCCCCCCCC(=O)N1CCCCC1CC (stereo not given)
survivor count (dose: 400.0 mg/kg/injection, schedule: Q01DX009 (ip), vehicle: carboxymethylcellulose (CMC)): 0 of 3 and 5 of 6

CCCCSP(Oc1ccccc1)SCCCC
survivor count (dose: 200.0 mg/kg/injection, schedule: Q01DX009 (ip), vehicle: Klucel (hydroxypropylcellulose) (HPC)): 6 of 6 | survivor count (dose: 400.0 mg/kg/injection, schedule: Q01DX009 (ip), vehicle: Klucel (hydroxypropylcellulose) (HPC)): 0 of 6

O=[N+]([O-])c1cc2c3c(cccc3c1)CC2
survivor count [13]: 6 of 6

Cc1ccc(Cl)cc1N=Cc1ccccc1O
T/C [5]: 125 % of control

Nc1nc(N)c2nc(NCc3ccc(C(=O)NC(CCC(=O)O)C(=O)O)cc3)cnc2n1 (stereo not given)
T/C [14]: 94, 95, 117, 120 % of control | T/C [7]: 95, 109, 110, 116 % of control | T/C [8]: 127 % of control | T/C [4]: 111, 114, 126, 132 % of control

CCN(C)CCC(CN)(CCN(C)CC)c1cccc2ccccc12
survivor count [14]: 2 of 6 | survivor count [7]: 0 of 6 | survivor count [4]: 0 of 6

C#CC(=O)c1ccccc1
survivor count (dose: 9.4 mg/kg/injection, schedule: Q01DX009 (ip), vehicle: saline with Tween-80): 3 of 6 | survivor count (dose: 18.8 mg/kg/injection, schedule: Q01DX009 (ip), vehicle: saline with Tween-80): 0 of 6 | survivor count (dose: 75.0 mg/kg/injection, schedule: Q01DX001 (ip), vehicle: saline): 0 of 6 | survivor count (dose: 100.0 mg/kg/injection, schedule: Q01DX001 (ip), vehicle: saline): 0 of 6 | survivor count [13]: 0 of 6 | survivor count [3]: 0 of 6

NC(N)=NCCCC(N)C(=O)NCCCCCCNC(=O)C(N)CCCN=C(N)N (stereo not given)
survivor count (dose: 300.0 mg/kg/injection, schedule: Q01DX Z (ip), vehicle: saline): 2 of 6

COc1cc(C=Nc2cccc(Br)c2)ccc1N(CCCl)CCCl
T/C (dose: 5.0 mg/kg/injection, schedule: Q01DX015 (ip), vehicle: carboxymethylcellulose (CMC)): 145 % of control | T/C (dose: 9.0 mg/kg/injection, schedule: Q01DX015 (ip), vehicle: carboxymethylcellulose (CMC)): 130 % of control | T/C (dose: 15.0 mg/kg/injection, schedule: Q01DX015 (ip), vehicle: carboxymethylcellulose (CMC)): 147 % of control | T/C (dose: 25.0 mg/kg/injection, schedule: Q01DX009 (ip), vehicle: saline): 131 % of control | T/C (dose: 25.0 mg/kg/injection, schedule: Q01DX015 (ip), vehicle: carboxymethylcellulose (CMC)): 136 % of control | survivor count (dose: 35.0 mg/kg/injection, schedule: Q01DX015 (ip), vehicle: carboxymethylcellulose (CMC)): 6 of 6 | T/C (dose: 50.0 mg/kg/injection, schedule: Q01DX001 (ip), vehicle: carboxymethylcellulose (CMC)): 127 % of control | survivor count (dose: 55.0 mg/kg/injection, schedule: Q01DX015 (ip), vehicle: carboxymethylcellulose (CMC)): 1 of 6 | T/C (dose: 75.0 mg/kg/injection, schedule: Q01DX001 (ip), vehicle: carboxymethylcellulose (CMC)): 130 % of control [3 of 4 alive] | survivor count (dose: 80.0 mg/kg/injection, schedule: Q01DX015 (ip), vehicle: carboxymethylcellulose (CMC)): 0 of 6 | survivor count [14]: 5 of 6 | survivor count [7]: 0 of 6 | survivor count [4]: 0 of 6
